# About 4,000 (1%) of roughly 390,000 compounds were called active. The shares of active, inactive and inconclusive entries below differ from those in the screen. Calls come from the whole dose curve; as a rule, active = well fitted inhibition curve with a large enough effect; inconclusive = small, poorly fitted or top-dose-only effect, or another doubt; inactive = no such curve, though single readings can be large or run the other way. Where the call is inconclusive, the potency comes from a doubtful curve fit.
# Chains of the proteins cited; added tags and fusions are not shown. Lines headed by an entry give the natural chain unless they say otherwise; changes in a name come on top.
# UniProt Q9UNA4: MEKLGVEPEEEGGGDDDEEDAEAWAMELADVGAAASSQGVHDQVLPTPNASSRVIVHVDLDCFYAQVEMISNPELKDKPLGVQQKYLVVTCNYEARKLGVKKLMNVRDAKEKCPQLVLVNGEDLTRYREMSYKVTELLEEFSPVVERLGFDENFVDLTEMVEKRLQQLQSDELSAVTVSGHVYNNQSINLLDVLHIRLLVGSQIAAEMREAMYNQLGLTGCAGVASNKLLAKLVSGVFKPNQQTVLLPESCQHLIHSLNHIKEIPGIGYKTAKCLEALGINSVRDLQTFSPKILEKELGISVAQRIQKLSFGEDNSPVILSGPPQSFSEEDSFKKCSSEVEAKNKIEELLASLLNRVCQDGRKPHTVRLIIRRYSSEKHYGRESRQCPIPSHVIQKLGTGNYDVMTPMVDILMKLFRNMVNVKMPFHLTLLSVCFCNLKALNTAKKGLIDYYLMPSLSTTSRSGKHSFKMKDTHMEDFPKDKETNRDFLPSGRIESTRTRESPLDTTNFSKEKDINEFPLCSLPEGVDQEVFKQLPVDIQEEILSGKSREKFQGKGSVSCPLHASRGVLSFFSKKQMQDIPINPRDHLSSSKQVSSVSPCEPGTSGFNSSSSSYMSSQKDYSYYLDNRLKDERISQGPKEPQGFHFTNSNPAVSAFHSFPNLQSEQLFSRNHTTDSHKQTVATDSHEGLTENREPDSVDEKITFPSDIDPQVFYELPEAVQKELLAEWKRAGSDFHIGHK
# Molecular target: DNA polymerase iota (Homo sapiens) (UniProt Q9UNA4)
# Assay: qHTS for Inhibitors of Polymerase Iota
# Settings: Pol iota fluorescent replication assay, 10 min; series mostly up to 115 µM
# Method in brief: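 Pol iota at 10 nM preincubated 15 min with compounds at room temperature; reaction started with fluorescent substrate, 50 nM final. Fluorescence read kinetically at 0 and 10 min; buffer-only wells as negative control.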
# Potency is the fitted concentration of half-maximal effect.
row,SMILES,Potency
1,Cc1ccc(NC(=O)CSC2=C(C#N)C(c3ccc4c(c3)OCO4)C3=C(CCCC3=O)N2)c(C)c1 (configuration not stated),"inconclusive: 20 µM [inhibitor, partial curve, poor fit]"
2,Cc1ccc(Cl)cc1N1CCN(C(=O)c2ccc(CS(=O)(=O)c3ccc(Br)cc3)o2)CC1,"inconclusive: 100 µM [inhibitor, partial curve, poor fit]"
3,N=C1C(c2nc(-c3ccc(Cl)cc3)cs2)=C(O)CN1CCCN1CCOCC1,"inconclusive: 39.8 µM [inhibitor, single point]"
4,Cc1ccc(S(=O)(=O)N(C)C)cc1NC(=O)C(C)OC(=O)c1cc[n+]([O-])cc1 (configuration not stated),inactive
5,CCCn1c(CCC(=O)Nc2cccc(C)c2C)nc2cccnc21,inactive
6,O=C1/C(=C\c2ccc(Cl)c(Cl)c2)CN(C(=O)CCN2CCOCC2)C/C1=C/c1ccc(Cl)c(Cl)c1,"inconclusive: 20 µM [inhibitor, partial curve, poor fit]"
7,Cc1ccc2oc(-c3ccc(NC(=O)c4ccncc4)cc3O)nc2c1,inactive
8,Nc1c(C(=O)NCCc2ccccc2)nnn1CC(=O)Nc1ccc(Cl)cc1,active: 79.4 µM
9,Cc1ccc(/C=N\NC(=O)Cc2cccn2C)o1,active: 79.4 µM
10,O=C(NC(=S)Nc1cccc(Cl)c1N1CCCCC1)c1ccc2c(c1)OCCO2,inactive
11,Cc1ccc(NC(=O)COC(=O)c2ccccc2OCC(=O)Nc2ccc(Br)cc2)c(Br)c1,inactive
12,CCOC(=O)C(NC(=O)c1ccccc1)=C1C=C(C)OC(C)=C1,"inconclusive: 11.2 µM [inhibitor, partial curve, poor fit]"
13,O=C(O)C1Sc2[nH]c(=O)sc2C2c3cc(Br)ccc3OC(=O)C12 (configuration not stated),"inconclusive: 14.1 µM [inhibitor, partial curve, poor fit]"
14,COCC(C)NCc1cccc(OC)c1OC (configuration not stated),"inconclusive: 25.1 µM [inhibitor, single point]"
15,CCOCCCn1c(=S)[nH]c2cc(C(=O)NCCc3ccccc3)ccc2c1=O,inactive
16,Cc1ccc(C)c(Oc2coc3cc(O)ccc3c2=O)c1,"inconclusive: 89.1 µM [inhibitor, single point]"
17,Cc1ccnc2nc(C(=O)OCC(=O)c3ccccc3)nn12,inactive
18,Cc1cccc(C(=O)Nc2ccc(C(=O)/C=C/c3ccncc3)cc2)c1,"inconclusive: 28.2 µM [inhibitor, partial curve, poor fit]"
19,O=C(Nc1cccc(Cl)c1)c1cccc(N2C(=O)C3CC=CCC3C2=O)c1 (configuration not stated),"inconclusive: 31.6 µM [inhibitor, partial curve]"
20,OCC1(Cc2ccc(Cl)cc2)CCN(Cc2ccc(F)c(F)c2)CC1,"inconclusive: 79.4 µM [inhibitor, single point]"
21,CCN1CCOC(=O)C1CC(=O)Nc1ccc(C)c(Cl)c1 (configuration not stated),inactive
22,CCC(=O)OC1(C)C(=O)C=C2C=C(CCCC(=O)OC)OC=C2C1=O (configuration not stated),"inconclusive: 28.2 µM [inhibitor, partial curve, poor fit]"
23,CCOC(=O)N1CCN(S(=O)(=O)c2ccc3[nH]cc(C(=O)O)c(=O)c3c2)CC1,inactive
24,CSCCC(NC(=O)c1ccccc1)C(=O)NNC(=O)c1ccccc1 (configuration not stated),"inconclusive: 63.1 µM [inhibitor, partial curve, poor fit]"

row,SMILES,Potency
1,CC(=O)/C(=C/N(C)C)C(=O)Nc1ccc(Cl)cc1Cl,"inconclusive: 39.8 µM [inhibitor, single point]"
2,CCCCN(CCCC)C(=O)CN(C)S(=O)(=O)c1ccc2c(c1)c(=O)n(C)c(=O)n2C,inactive
3,O=C(Nc1ccccc1)Nc1ncc([N+](=O)[O-])s1,inactive
4,C(=C\c1nc2ccccc2s1)/c1ccc2c(c1)OCO2,inactive
5,Cc1[nH]n(-c2ccccc2)c(=O)c1/C=C1\C=NN=C1c1ccccc1,"inconclusive: 39.8 µM [inhibitor, single point]"
6,CN(C(=O)/C=C/c1ccco1)c1ccccc1C(=O)O,"inconclusive: 56.2 µM [inhibitor, partial curve, poor fit]"
7,C#CCOCCOCCOCCNc1nc(N2CCN(C(=O)Cn3cc(CCCCN)nn3)CC2)nc(N2CCN(C(=O)[C@H]([C@@H](C)CC)n3cc(CCCN=C(N)N)nn3)CC2)n1,"inconclusive: 7.94 µM [inhibitor, partial curve, poor fit]"
8,CCCCNC(=O)C(CC)Sc1nnc(-c2cccc(F)c2)c(-c2cccc(F)c2)n1 (configuration not stated),inactive
9,COc1ccc2oc(=O)cc(CN3CCN(c4ccc(F)cc4)CC3)c2c1,"inconclusive: 39.8 µM [inhibitor, partial curve, poor fit]"
10,CC1CCN(c2ccc(/C=N/n3nnnc3N)cc2[N+](=O)[O-])CC1,inactive
11,COc1ccc(CCC(=O)NC2CC(=O)N(c3ccc(C)cc3)C2)cc1 (configuration not stated),inactive
12,COc1cccc(NC(=O)NNS(=O)(=O)c2ccc(OC)cc2OC)c1,inactive
13,COC(=O)c1ccc(COc2ccccc2/C=C/C(=O)c2ccc(OCC(=O)O)cc2)cc1,"inconclusive: 17.8 µM [inhibitor, full curve, poor fit]"
14,CCN1CCN(c2ccc(Cl)cc2NC(=O)c2ccco2)CC1,inactive
15,COc1ccc(CN2C(=O)C(Cc3ccccc3)Nc3ncnc(N4CCOCC4)c32)cc1 (configuration not stated),"inconclusive: 35.5 µM [inhibitor, single point]"
16,O=C(CN1C=NS(=O)(=O)c2ccccc21)Nc1ccc(F)cc1,inactive
17,Cn1c(CSCc2ccccc2)nnc1SCC(=O)Nc1nccs1,inactive
18,O=C(CN1CCCCC1)Nc1c2c(nc3ccccc13)N(c1ccccc1)CC2,"inconclusive: 50.1 µM [inhibitor, partial curve]"
19,COc1ccc(-c2nc(=N)sn2-c2ccccc2)cc1,inactive
20,Cc1cc(N2C(=O)C3C4C=CC(C4)C3C2=O)ccc1NC(=O)c1cccs1 (configuration not stated),"inconclusive: 112 µM [inhibitor, single point]"
21,Clc1nssc1=Nc1nncs1,"inconclusive: 17.8 µM [inhibitor, partial curve, poor fit]"
22,CC(=O)NCCNC(=O)CCCc1nnc2n(C)c(=O)c3sccc3n12,inactive
23,O=c1c2ccccc2[nH]c2ccc(O)cc12,"inconclusive: 5.01 µM [inhibitor, full curve, poor fit]"
24,O=C(NCCc1ccncc1)c1ccc2nc(Cc3cccc(Cl)c3)oc2c1,inactive

# 3 entries drawn at random from those above, as already listed:
row,SMILES,Potency
22,CC(=O)NCCNC(=O)CCCc1nnc2n(C)c(=O)c3sccc3n12,inactive
4,C(=C\c1nc2ccccc2s1)/c1ccc2c(c1)OCO2,inactive
18,O=C(CN1CCCCC1)Nc1c2c(nc3ccccc13)N(c1ccccc1)CC2,"inconclusive: 50.1 µM [inhibitor, partial curve]"

# The list continues:

row,SMILES,Potency
1,O=C(Nc1cccc(Cl)c1)N1CCOCC1,inactive
2,COc1ccc2nc(Cl)c(C3CC(c4ccco4)=NN3C(=O)CCC(=O)O)cc2c1 (configuration not stated),inactive
3,CCOc1ccc(NC2=NCC(=O)N2Cc2cccs2)cc1,inactive
4,Cc1ccc2oc(C(=O)Nc3c(C(=O)Nc4ccccc4)oc4ccccc34)cc(=O)c2c1,inactive
5,CC(C)S(=O)(=O)C1=NSC2=NC(=O)/C(=C\c3ccc(-c4cccc(C(=O)O)c4)o3)C(=N)N21,active: 5.62 µM
6,CCOC(=O)c1[nH]c2ccc(Br)cc2c1NC(=O)CCN1CCC(C(=O)OCC)CC1,"inconclusive: 10 µM [inhibitor, single point]"
7,Cc1ccc(NC2=CC(c3ccccc3F)N(c3ccc(C)cc3)C2=O)cc1 (configuration not stated),inactive
8,CCOc1ccc(-c2c(C(=O)N/N=C/c3ccc(C)o3)nnn2-c2nonc2N)cc1,"inconclusive: 100 µM [inhibitor, single point]"
9,O=C1CC(c2ccccc2)NN1 (configuration not stated),"inconclusive: 28.2 µM [inhibitor, partial curve, poor fit]"
10,Cc1ccnc2nc(C(=O)OCC(=O)N(CC(C)C)C3CCS(=O)(=O)C3)nn12 (configuration not stated),inactive
11,S=c1[nH]nc(Nc2ccc(Cl)cc2)s1,"inconclusive: 22.4 µM [inhibitor, partial curve, poor fit]"
12,Cc1cc(NC(=O)c2cc(-c3ccco3)on2)n(-c2ccccc2)n1,active: 89.1 µM
13,COc1ccc(C2CC(=O)Oc3c(C(C)C)ccc(C)c32)cc1 (configuration not stated),"inconclusive: 31.6 µM [inhibitor, single point]"
14,CC(=O)c1cccc(S(=O)(=O)NCCCN2CCOCC2)c1,active: 44.7 µM
15,COC(=O)/N=C/c1c(NCc2ccccc2)nc2c(C)cccn2c1=O,"inconclusive: 28.2 µM [inhibitor, partial curve, poor fit]"
16,COc1ccc(OCCC(=O)NCCN2CCOCC2)cc1,"inconclusive: 100 µM [inhibitor, partial curve, poor fit]"
17,Cc1cc(OCC(=O)NCC2(N3CCN(C)CC3)CCCCC2)cc(C)c1Cl,"inconclusive: 79.4 µM [inhibitor, single point]"
18,CC(C)CC1Nc2ncnc(N3CCCCC3)c2N(Cc2ccc(Br)cc2)C1=O (configuration not stated),"inconclusive: 22.4 µM [inhibitor, single point]"
19,COc1ccc(CNC(=O)Cn2nc(C)c3nn(-c4ccc(Cl)cc4)c(C)c3c2=O)cc1,inactive
20,CCCc1cc(N2CCN(c3cc(Cl)ccc3C)CC2)n2cnnc2n1,"inconclusive: 89.1 µM [inhibitor, single point]"
21,O=[N+]([O-])c1ccc(N2CCN(Cc3ccncc3)CC2)cc1,"inconclusive: 79.4 µM [inhibitor, partial curve, poor fit]"
22,O=C(c1ccco1)N1CCN(C(=O)c2ccc(Cn3cc(Br)cn3)o2)CC1,"inconclusive: 1 µM [inhibitor, partial curve, poor fit]"
23,O=c1c(Cl)cc(Cl)nn1-c1ccccc1,"inconclusive: 89.1 µM [inhibitor, partial curve, poor fit]"
24,O=C(O)C1CCCCC1C(=O)Nc1nc(-c2ccc(Cl)s2)cs1 (configuration not stated),"inconclusive: 44.7 µM [inhibitor, full curve, poor fit]"

# Source: PubChem BioAssay AID588590 (National Center for Advancing Translational Sciences (NCATS), 2011)
